Results deposited as PubChem BioAssay AID1259254 (NCATS, 2017).

- Aim: 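Gene knock-downs that lead to re-replication, shown by excess G2 DNA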 (primary screen)
- System: human HCT116 colorectal cancer cells
- Reagents: single siRNA against human genes
- Duration: 3 days
- Detection: 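Imaged Hoechst DNA stain sorts each cell into a cycle phase by DNA amount; per plate, G2 fraction set to 0% for non-targeting and 100% for GMNN siRNA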
- Direction: G2 robust z-score: higher = more G2 cells, more excess DNA replication
- Call rule: 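An siRNA counts as active if its G2 robust z-score lies at least 5 MADs above the screen median; here such calls match roughly 38% of GMNN control or more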
The whole screen tested about 59,000 reagents; shown is a part drawn at random. Over the whole deposit, about 1,550 (2.6%) were called active. 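G2 share is only a proxy for re-replication; each gene was hit by three separate siRNAs, and active genes were retested.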 Unmarked entries are inactive. Reagents against one gene are numbered here. Further read-outs or replicates are left out here. Not stated in the record: the amount of reagent.

CTBP2 (C-terminal binding protein 2) #1
- G2 robust z-score: 5.33 (active)

CTBP2 (C-terminal binding protein 2) #2
- G2 robust z-score: -0.822

CTBP2 (C-terminal binding protein 2) #3
- G2 robust z-score: -1.17

POC5 (POC5 centriolar protein) #1
- G2 robust z-score: -0.622

POC5 (POC5 centriolar protein) #2
- G2 robust z-score: 0.0641

POC5 (POC5 centriolar protein) #3
- G2 robust z-score: 1.45

VIPR2 (vasoactive intestinal peptide receptor 2) #1
- G2 robust z-score: 2.54

VIPR2 (vasoactive intestinal peptide receptor 2) #2
- G2 robust z-score: -0.399

VIPR2 (vasoactive intestinal peptide receptor 2) #3
- G2 robust z-score: 1.2

WASH5P (WASP family homolog 5, pseudogene) #1
- G2 robust z-score: -0.103

WASH5P (WASP family homolog 5, pseudogene) #2
- G2 robust z-score: -0.929

WASH5P (WASP family homolog 5, pseudogene) #3
- G2 robust z-score: 0.908

CCDC191 (coiled-coil domain containing 191) #1
- G2 robust z-score: -0.463

CCDC191 (coiled-coil domain containing 191) #2
- G2 robust z-score: -0.956

CCDC191 (coiled-coil domain containing 191) #3
- G2 robust z-score: -0.281

XRCC3 (X-ray repair cross complementing 3) #1
- G2 robust z-score: -0.829

XRCC3 (X-ray repair cross complementing 3) #2
- G2 robust z-score: -0.206

XRCC3 (X-ray repair cross complementing 3) #3
- G2 robust z-score: -0.564

XRCC3 (X-ray repair cross complementing 3) #4
- G2 robust z-score: -0.918

XRCC3 (X-ray repair cross complementing 3) #5
- G2 robust z-score: -0.781

XRCC3 (X-ray repair cross complementing 3) #6
- G2 robust z-score: -0.299

GAPVD1 (GTPase activating protein and VPS9 domains 1) #1
- G2 robust z-score: 2.9

GAPVD1 (GTPase activating protein and VPS9 domains 1) #2
- G2 robust z-score: -0.751

GAPVD1 (GTPase activating protein and VPS9 domains 1) #3
- G2 robust z-score: 1.56

3 entries from above, set out differently.
{"Gene": "POC5 (POC5 centriolar protein)", "reagent no.": 1, "G2 robust z-score": -0.622}
{"Gene": "POC5 (POC5 centriolar protein)", "reagent no.": 2, "G2 robust z-score": 0.0641}
{"Gene": "POC5 (POC5 centriolar protein)", "reagent no.": 3, "G2 robust z-score": 1.45}
